Some of the results follow. Further columns of the screen follow, without active or inactive calls. The list favours compounds with an active or inconclusive main result. Potencies come from curve fits of mixed quality, noted in brackets.

The nature of the test: qHTS Assay to Find Inhibitors of Chronic Active B-Cell Receptor Signaling. To be noted: ABC-DLBCL IkBa-CBG/CBR reporter, luminescence ratio (green luciferase fused to IkBa over red control in TMD8 lymphoma cells), 4 h. In outline:
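Compounds up to 46 uM were incubated four hours with TMD8 cells whose green CBG68 luciferase is fused to IkappaBalpha; red CBR luminescence normalised the signal, and concentration-effect curves were fitted to fusion, red and ratio data.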

Setting [1] is: measured here: CBR red luminescence, cell number.
Where [2] appears, read: measured here: IkBa-CBG green luminescence.

For orientation: AC50 means the concentration giving half of the maximal activity seen. `CCS(=O)(=O)Nc1ccc(-c2nnc(SCC(=O)OC)o2)cc1`: under setting [1], the AC50 was 20 µM [falling, single point]. The same measure, in the same setting: under `CCC(=O)N(CCC1(C(C)C)CCOC(C)(C)C1)Cc1ccco1` (stereo unspecified) stands 16.4 µM [falling, single point]; under `Cc1cc(-c2cc(-c3ccccc3)on2)nc(NCC2CC2)n1`, 0.398 µM [rising, full curve, poor fit]; under `CCn1c(=O)c(=O)[nH]c2cc(C(=O)NC3CCCc4ccccc43)ccc21` (stereo unspecified), 32.6 µM [falling, single point]. For `COc1ccc(N2CCN(C(=O)CSc3ccc(C)cc3)CC2)cc1`, the AC50 under setting [1] was 10 µM [rising, partial curve, poor fit]. Still for that read-out and setting: the result for `COc1ccccc1-n1c(SCc2cc(=O)oc3cc(O)ccc23)nc2ccccc2c1=O` reads 4.11 µM [rising, partial curve, poor fit]; that for `N#Cc1c(N2CCOCC2)nc(N)c2c(N)nc3c(c12)CC(CCl)O3` (stereo unspecified), 0.562 µM [falling, full curve, poor fit].

For `O=C(NC(=S)NCc1ccco1)c1cccc(Cl)c1`, under setting [1], the AC50 is 20 µM [rising, partial curve, poor fit].

Take `CCc1ccc(-c2cc(C(F)(F)F)n3nc(C(=O)Nc4c(C)nn(Cc5ccccc5Cl)c4C)cc3n2)s1`: the AC50 under setting [1] was 0.00461 µM [rising, full curve, poor fit].

Turning to `CC1(C)N=C(N)N=C(N)N1c1cccc(CN)c1`, under setting [1], the AC50 is 17.8 µM [rising, single point]. On the same count and under the same terms, the result for `CCCSc1nnc2c(n1)OC(c1ccc(OCC(=O)O)cc1)Nc1ccccc1-2` (stereo unspecified) reads 10 µM [falling, partial curve]; that for `COc1ccccc1CNc1ncc(-c2ccccc2)n1C`, 10 µM [falling, partial curve, poor fit].

`CCN1CCN(Cc2ccc(OCc3ccccc3)cc2)CC1`: under setting [1], the AC50 was 3.66 µM [rising, partial curve, poor fit]. Same read-out and setting: under `C/C(=N\NC(=O)CNC(=O)C(c1ccccc1)c1ccccc1)c1ccc(C(C)(C)C)cc1` stands 29.1 µM [rising, partial curve, poor fit]. Take `CCOc1ccc(NCc2nnc(SCc3ccc(Cl)cc3)n2-c2ccccc2)cc1`: under setting [1], the AC50 was 29.1 µM [falling, single point]. Still for that read-out and setting: under `CC(C)NC(=S)N1CCn2c(nc3ccccc32)C1` stands 18.4 µM [rising, partial curve, poor fit]. In the case of `O=C(CN1C(=O)NC2(CCCC2)C1=O)OCc1ccccc1`, under setting [1], the AC50 is 2.59 µM [rising, full curve]. The same measure, in the same setting: the result for `CCCCNC(=O)Oc1c(Br)cc2sc(=O)oc2c1Br` reads 10 µM [falling, partial curve, poor fit].

`COc1cc(Cc2nccc3cc(OC)c(OC)cc23)c(NC(C)=O)cc1OC`: the AC50 under setting [1] is 15.8 µM [rising, partial curve, poor fit] and the AC50 under setting [2] was 12.6 µM [falling, partial curve, poor fit].

In the case of `O=C(O)C(CO)N=Cc1c(O)c2ccccc2oc1=O` (stereo unspecified), the AC50 under setting [1] was 3.98 µM [falling, partial curve].

As to `CCCNC(=O)C1CCN(Cc2cc3ccccc3n2Cc2ccccc2)CC1`, the AC50 under setting [1] is 35.5 µM [falling, partial curve, poor fit]. The same measure, in the same setting: under `CN(C)C=NC(=O)c1cc(C(=O)c2ccccc2)c[nH]1` stands 12.6 µM [falling, partial curve, poor fit]; under `COc1ccc(NC(=O)/C(=C\c2cc(OC)c(OC)cc2[N+](=O)[O-])NC(=O)c2ccccc2)cc1`, 35.5 µM [rising, partial curve, poor fit]; under `O=C1c2nc3ccccn3c2C(=O)N1Cc1ccccc1`, 3.16 µM [falling, full curve]. As to `CC(C)c1ccc(-c2nnc(N)s2)cc1`, under setting [1], the AC50 was 16.4 µM [rising, partial curve, poor fit]. Still for that read-out and setting: the result for `Nc1nonc1C(=O)NCCNCc1c(OCc2ccccc2F)ccc2ccccc12` reads 29.1 µM [falling, single point]; that for `COc1ccc(C2CC(c3ccccc3)=NN2C(=O)c2ccc(F)cc2)cc1` (stereo unspecified), 2.82 µM [rising, full curve, poor fit]. Still for that read-out and setting: the result for `CCCOc1ccc(N2CC(C(=O)Nc3ccccc3OC)CC2=O)cc1` (stereo unspecified) reads 9.2 µM [rising, partial curve, poor fit]. The same measure, in the same setting: under `O=C(NCc1ccccn1)c1cccc(NS(=O)(=O)c2ccc(Br)cc2)c1` stands 3.66 µM [rising, full curve]. As for `CC(=O)NCCC(=O)Nc1cc(S(=O)(=O)N2CCCCC2)ccc1Oc1ccccc1`, the AC50 under setting [1] is 35.5 µM [rising, partial curve, poor fit]. The same measure, in the same setting: the result for `N/C(=N\OC(=O)c1cccc2ccccc12)c1cccc([N+](=O)[O-])c1` reads 11.2 µM [rising, partial curve, poor fit]. The same measure, in the same setting: the result for `CN(CC(=O)Nc1cccc(F)c1)C(=O)c1ccc(-c2cccc(C(F)(F)F)c2)o1` reads 29.1 µM [falling, single point]; that for `CC[n+]1c(C)sc2sc3ccccc3c21`, 1 µM [falling, full curve, poor fit]. On the same count and under the same terms, the result for `CN1CCN(C(=O)CCCN2C(=O)/C(=C/c3cccc(Br)c3)SC2=S)CC1` reads 6.31 µM [falling, partial curve]. In the case of `c1coc(CNCCCN2CCOCC2)c1`, under setting [1], the AC50 was 2.59 µM [rising, full curve, poor fit]. On the same count and under the same terms, the result for `CC(Nc1nc(N2CCN(CCO)CC2)nc2ccccc12)c1ccccc1` (stereo unspecified) reads 12.6 µM [rising, single point]; that for `O=Nc1c(O)n(Cc2ccc(Cl)cc2)c2ccccc12`, 35.5 µM [falling, single point]. Still for that read-out and setting: the result for `O=C(c1cc(-c2ccc(Br)cc2)on1)N1CCOCC1` reads 6.31 µM [falling, full curve]. The same measure, in the same setting: under `Cc1nc2nc(-c3cccnc3)[nH]n2c(=O)c1Cc1ccccc1` stands 1.64 µM [falling, full curve]. `Cc1ccc2cc(CCNC(=O)C(C)C)c(=O)[nH]c2c1`: under setting [1], the AC50 is 6.51 µM [rising, single point].

In the case of `COc1cccc(N2CCN(C(=O)c3ccc4nc(N5CCCCC5)sc4c3)CC2)c1`, under setting [1], the AC50 was 11.6 µM [falling, partial curve, poor fit].

Consider `CCOc1ncccc1C(=O)Nc1cc(S(=O)(=O)N2CCCCC2)ccc1C`, for which, under setting [1], the AC50 was 3.66 µM [falling, partial curve, poor fit]. With `COc1ccc(C2C(C(=O)OCC(=O)Nc3ccc(C)cc3)CCC(=O)N2c2ccc(OC)cc2)cc1` (stereo unspecified), the AC50 under setting [1] is 2.06 µM [rising, full curve, poor fit]. The same measure, in the same setting: under `O=C1c2ccccc2-c2onc3ccc(NCc4ccco4)c1c23` stands 14.1 µM [falling, partial curve]; under `O=C(/C=C/c1ccc(Br)cc1)c1ccc(NC2=NCCCS2)cc1`, 18.4 µM [falling, single point]; under `Cc1cccnc1NC(=O)c1sc2ccccc2c1Cl`, 11.2 µM [falling, partial curve, poor fit]. In the case of `CCn1nc(C)c(Br)c1-c1nc(CS(=O)(=O)c2ccsc2)no1`, under setting [1], the AC50 is 0.355 µM [falling, full curve, poor fit].

On to `CC(C)(C)n1nnnc1C(c1cccnc1)N1CCN(c2cccc(C(F)(F)F)c2)CC1` (stereo unspecified), for which the AC50 under setting [1] is 0.00517 µM [rising, full curve, poor fit]. As to `COc1ccccc1CNCC(=O)Nc1ccc(N(C)C)cc1`, the AC50 under setting [1] is 12.6 µM [falling, partial curve]. On the same count and under the same terms, under `CCCCC#Cc1cncc(C(=O)N/N=C/c2cccc(OC)c2)c1` stands 3.98 µM [falling, partial curve]. On the same count and under the same terms, under `Cn1c(SCC(=O)Nc2cccc(NC(=O)c3cccs3)c2)nnc1-c1ccncc1` stands 35.5 µM [falling, single point]. Regarding `CCS(=O)(=O)N1Cc2ccccc2CC1C(=O)Nc1nc2ccccc2s1` (stereo unspecified), the AC50 under setting [1] is 0.461 µM [falling, full curve]. The same measure, in the same setting: the result for `Cc1c(NC(=O)COC(=O)CCC(=O)c2ccc(Cl)cc2)c(=O)n(-c2ccccc2)n1C` reads 12.6 µM [falling, partial curve, poor fit]; that for `Cc1cccc(CSc2nc3sc(C)c(C)c3c(=O)n2Cc2ccco2)c1`, 23.1 µM [falling, single point]; that for `Clc1nc2c(ccc3ccccc32)[nH]1`, 3.55 µM [rising, partial curve, poor fit]. For the compound `O=C1C(c2c(O)[nH]c3ccccc23)=Nc2ccccc21`, the AC50 under setting [1] was 0.501 µM [rising, full curve, poor fit]. For the compound `COc1ccccc1NC(=O)Nc1ccc(C(=O)N2CCCCC2)cc1`, the AC50 under setting [1] was 8.91 µM [falling, partial curve, poor fit] and the AC50 under setting [2] is 12.6 µM [rising, single point].

As to `Cc1ccc(S(=O)(=O)N(C)C)cc1NC(=O)COC(=O)/C=C/c1ccc2ccccc2n1`, under setting [1], the AC50 is 20.6 µM [falling, single point].

On to `COc1cc(CC(=O)OCC(=O)NC2CCCCCC2)cc(OC)c1OC`, for which the AC50 under setting [1] was 7.31 µM [rising, partial curve, poor fit]. On the same count and under the same terms, the result for `O=C(CCc1nc2ccccc2c(=O)[nH]1)Nc1nnc(SCc2ccccc2F)s1` reads 29.1 µM [rising, single point].

For `CCOC(=O)c1ccccc1NC(=O)COC(=O)c1c(CC)noc1C`, under setting [1], the AC50 was 20.6 µM [falling, single point].

On to `O=C(NCc1cccnc1)/C(=C\c1ccc(-c2ccc(Br)cc2)o1)S(=O)(=O)c1ccccc1`, for which the AC50 is 7.31 µM [falling, partial curve, poor fit] under setting [1] and 23.1 µM [rising, partial curve, poor fit] under setting [2]. With `CCOc1ccc(-c2nc(-c3cccs3)c(CC(=O)O)s2)cc1OC`, the AC50 under setting [1] is 5.62 µM [rising, single point].

These data come from PubChem BioAssay AID493014 (National Center for Advancing Translational Sciences (NCATS), 2011).
